Experimental data reported in patent US20210009693A1.
No constants are given. Whether binding was seen depends on the method and setting. Some results given as binding are weak or reduced against the parent protein; the word gives no strength.

By UniProt entry, the sequences of proteins in these tests, tags left out. Where a name states a change or a piece, a line headed by the entry shows the natural chain unless it says otherwise. Chains listed by the source or under a name are the forms on record and can include a tag or linker. Residues count along the entry.
UniProt Q9NZQ7: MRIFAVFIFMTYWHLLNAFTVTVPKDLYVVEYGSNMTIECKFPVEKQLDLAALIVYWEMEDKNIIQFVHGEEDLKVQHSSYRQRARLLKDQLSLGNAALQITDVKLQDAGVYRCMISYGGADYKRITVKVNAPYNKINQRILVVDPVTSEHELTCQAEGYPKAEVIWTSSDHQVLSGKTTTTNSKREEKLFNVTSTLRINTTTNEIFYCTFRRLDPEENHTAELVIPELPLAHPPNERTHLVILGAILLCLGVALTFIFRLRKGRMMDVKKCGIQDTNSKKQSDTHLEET
human PD-L1 expressed on cells: residues 19-290 of Q9NZQ7
Recombinant Human PD-L1/CD274 Protein (hPD-L1-his) (Q9NZQ7, form named): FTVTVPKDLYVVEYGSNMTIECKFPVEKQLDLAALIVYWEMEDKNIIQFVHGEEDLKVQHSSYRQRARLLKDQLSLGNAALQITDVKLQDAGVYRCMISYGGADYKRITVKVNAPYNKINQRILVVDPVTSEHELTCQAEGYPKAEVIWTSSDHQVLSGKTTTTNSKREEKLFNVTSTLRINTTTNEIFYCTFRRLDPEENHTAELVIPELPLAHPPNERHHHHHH

How the values were obtained:
[1] = molecular target: Recombinant Human PD-L1/CD274 Protein (hPD-L1-his) (human) (UniProt Q9NZQ7); assay: ELISA on coated hPD-L1-his
[2] = molecular target: human PD-L1 expressed on cells (human) (UniProt Q9NZQ7); assay: FACS, IFN-gamma stimulated HCC827 cells
[3] = molecular target: Human PD-L1/CD274 with C-Fc Tag (hPD-L1-Fc) (human) (UniProt Q9NZQ7); assay: blocking ELISA on coated hPD-L1-Fc; blocked ligand: biotinylated hPD-1-N297A
[4] = molecular target: human PD-L1 expressed on cells (human) (UniProt Q9NZQ7); assay: blocking FACS on HCC827 cells; blocked ligand: biotinylated hPD-1-N297A
[5] = molecular target: wild type human PD-L1-Fc protein (SEQ ID NO: 107) (human); assay: ELISA on hPD-L1-Fc captured from 293T supernatant, 0.5 ug/ml biotinylated antibody
[6] = molecular target: Recombinant Human PD-L1/CD274 Protein (hPD-L1-his) (human) (UniProt Q9NZQ7); assay: ELISA on coated hPD-L1-his; bound at pH7.4, then 2 h at pH5.5
[7] = molecular target: Recombinant Human PD-L1/CD274 Protein (hPD-L1-his) (human) (UniProt Q9NZQ7); assay: ELISA on coated hPD-L1-his; bound at pH7.4, then 2 h at pH7.4
[8] = molecular target: human PD-L1 expressed on cells (human) (UniProt Q9NZQ7); assay: flow cytometry on anti-CD3/anti-CD28-activated human blood cells
[9] = molecular target: human PD-L1 expressed on cells (human) (UniProt Q9NZQ7); assay: flow cytometry (relative mean fluorescence) on human peripheral blood cells activated 3 days with anti-CD3 and anti-CD28; detection with anti-human IgG-APC
[10] = molecular target: human PD-L1 expressed on cells (human) (UniProt Q9NZQ7); assay: flow cytometry (relative mean fluorescence) on human peripheral blood cells activated with anti-CD3 and anti-CD28, beside unstimulated cells; detection with anti-human IgG-APC

Measured: binding

B1: 23A11-H5L3 (antibody, V domains shown)
VH: LVQLVQSGAEVKKPGASVKVSCKASGYIFTTYWIHWVRQAPGQGLEWIGMIQPNSGGTKYNDQFKNRVTLTVDTSISTAYMELSRLRSDDTAVYYCARGAGTVDYFDYWGQGTTLSISS
VL: DIVLTQSPASLAVSVGQRATITCRASESVDIYGNSFMHWYQQKPGQSPKLLIYRASNLESGIPARFSGSGSRTDFTLTINPVEANDTATYYCHQSNDDPYTFGGGTKLETK
binds: [1] | [2] | [3]

B2: 23A11-H3L5 (antibody, V domains shown)
VH: LVQLVQSGAEVKKPGASVKLSCKASGYIFTTYWIHWVKQRPGQGLEWIGMIQPNSGGTKYNDQFKNRATLTVDKSISTAYMELSRLTSDDTAVYYCARGAGTVDYFDYWGQGTTLSISS
VL: DIVLTQSPASLAVSVGQRATITCRASESVDIYGNSFMHWYQQKPGQAPKLLIYRASNLESGIPARFSGSGSRTDFTLTINPVEANDTATYYCQQSNDDPYTFGGGTKLETK
binds: [2] | [4] | [3] | [5]

B3: 23F11-H4L4 (produced in CHO cells) (antibody, V domains shown)
VH: QVQLVQSGAEVKKPGASVKLSCKASGYIFTTYWMHWVKQRPGQGLEWIGMIQPNSGGTKYNEKFKKKATLTVDKSISTAYMELSRLTSDDTAVYYCARGAGTVDYFDYWGQGSTLTVSS
VL: DIVLTQSPASLAVSVGQRATITCRASESVDIYGNSFMHWYQQKPGQPPKLLIYRASNLESGIPARFSGSGSRTDFTLTINPVEAQDTATYYCQQSTEDPYTFGGGTKLEIK
binds: [6] | [7] | [4]

B4: 23F11-H4L4 (antibody, V domains shown)
VH: QVQLVQSGAEVKKPGASVKLSCKASGYIFTTYWMHWVKQRPGQGLEWIGMIQPNSGGTKYNEKFKKKATLTVDKSISTAYMELSRLTSDDTAVYYCARGAGTVDYFDYWGQGSTLTVSS
VL: DIVLTQSPASLAVSVGQRATITCRASESVDIYGNSFMHWYQQKPGQPPKLLIYRASNLESGIPARFSGSGSRTDFTLTINPVEANDTATYYCQQSTEDPYTFGGGTKLEIK
not listed: [1] | [6] | [7]
binds: all other assays above

B5: 23A11-H5L5 (antibody, V domains shown)
VH: LVQLVQSGAEVKKPGASVKVSCKASGYIFTTYWIHWVRQAPGQGLEWIGMIQPNSGGTKYNDQFKNRVTLTVDTSISTAYMELSRLRSDDTAVYYCARGAGTVDYFDYWGQGTTLSISS
VL: DIVLTQSPASLAVSVGQRATITCRASESVDIYGNSFMHWYQQKPGQAPKLLIYRASNLESGIPARFSGSGSRTDFTLTINPVEANDTATYYCQQSNDDPYTFGGGTKLETK
binds: [1] | [2] | [3]

B6: 23A11-H3L5 CHO (antibody, V domains shown)
VH: QVQLVQSGAEVKKPGASVKLSCKASGYIFTTYWIHWVKQRPGQGLEWIGMIQPNSGGTKYNDQFKNRATLTVDKSISTAYMELSRLTSDDTAVYYCARGAGTVDYFDYWGQGTTLSISS
VL: DIVLTQSPASLAVSVGQRATITCRASESVDIYGNSFMHWYQQKPGQAPKLLIYRASNLESGIPARFSGSGSRTDFTLTINPVEAQDTATYYCQQSNDDPYTFGGGTKLETK
binds: [4]
